Results published in publication PMC6711988.

Chains of the proteins cited; added tags and fusions are not shown.
UniProt Q7XZF5: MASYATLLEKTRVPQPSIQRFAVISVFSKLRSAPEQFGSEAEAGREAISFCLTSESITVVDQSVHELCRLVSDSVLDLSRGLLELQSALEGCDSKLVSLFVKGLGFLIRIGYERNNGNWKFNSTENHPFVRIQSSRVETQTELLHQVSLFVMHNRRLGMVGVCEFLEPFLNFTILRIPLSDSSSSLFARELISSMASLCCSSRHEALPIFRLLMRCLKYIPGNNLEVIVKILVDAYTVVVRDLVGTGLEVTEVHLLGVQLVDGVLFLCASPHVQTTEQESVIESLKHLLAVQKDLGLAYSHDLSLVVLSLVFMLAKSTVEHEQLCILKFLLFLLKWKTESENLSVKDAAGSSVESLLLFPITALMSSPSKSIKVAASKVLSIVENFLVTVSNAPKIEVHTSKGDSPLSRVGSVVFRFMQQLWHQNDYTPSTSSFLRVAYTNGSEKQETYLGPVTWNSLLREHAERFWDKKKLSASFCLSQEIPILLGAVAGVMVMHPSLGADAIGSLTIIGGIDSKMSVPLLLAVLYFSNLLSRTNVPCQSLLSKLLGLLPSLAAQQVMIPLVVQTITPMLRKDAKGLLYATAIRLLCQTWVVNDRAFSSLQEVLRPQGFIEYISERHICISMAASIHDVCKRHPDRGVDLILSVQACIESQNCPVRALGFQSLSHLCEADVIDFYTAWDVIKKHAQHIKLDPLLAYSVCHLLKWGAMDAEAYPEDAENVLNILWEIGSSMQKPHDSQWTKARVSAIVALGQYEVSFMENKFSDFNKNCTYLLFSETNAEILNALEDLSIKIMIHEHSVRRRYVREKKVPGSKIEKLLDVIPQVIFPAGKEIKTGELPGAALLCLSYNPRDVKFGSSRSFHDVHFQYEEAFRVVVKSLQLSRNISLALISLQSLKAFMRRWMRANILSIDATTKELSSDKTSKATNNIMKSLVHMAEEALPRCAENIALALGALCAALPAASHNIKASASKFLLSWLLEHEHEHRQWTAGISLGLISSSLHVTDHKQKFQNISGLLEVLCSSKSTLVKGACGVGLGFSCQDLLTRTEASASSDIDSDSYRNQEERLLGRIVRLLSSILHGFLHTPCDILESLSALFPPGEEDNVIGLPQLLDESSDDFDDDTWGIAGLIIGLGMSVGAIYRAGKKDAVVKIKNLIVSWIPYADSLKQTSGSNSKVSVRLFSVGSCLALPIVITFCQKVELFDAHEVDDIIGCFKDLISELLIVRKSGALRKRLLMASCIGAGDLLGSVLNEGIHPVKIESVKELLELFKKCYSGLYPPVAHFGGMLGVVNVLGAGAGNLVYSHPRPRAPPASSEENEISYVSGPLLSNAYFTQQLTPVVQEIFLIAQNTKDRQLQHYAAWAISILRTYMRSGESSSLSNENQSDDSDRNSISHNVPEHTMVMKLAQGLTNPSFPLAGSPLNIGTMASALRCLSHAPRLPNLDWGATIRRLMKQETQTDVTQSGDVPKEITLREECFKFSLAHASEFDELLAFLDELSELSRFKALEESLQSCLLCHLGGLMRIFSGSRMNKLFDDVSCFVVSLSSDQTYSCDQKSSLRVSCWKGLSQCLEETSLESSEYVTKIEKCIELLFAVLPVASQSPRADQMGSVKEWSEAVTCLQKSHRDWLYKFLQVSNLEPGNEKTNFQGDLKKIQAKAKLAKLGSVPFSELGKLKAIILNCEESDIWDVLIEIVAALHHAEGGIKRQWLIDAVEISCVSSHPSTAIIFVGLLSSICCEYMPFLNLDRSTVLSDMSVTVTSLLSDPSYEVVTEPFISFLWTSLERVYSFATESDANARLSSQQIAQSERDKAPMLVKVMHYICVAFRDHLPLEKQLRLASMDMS

B1: SKI2 (protein, UniProt F4JAA5 1-1347)
chain: MNKVEAGNELGFRVGFSGHGGHLRVEPFYTAERDDALNSLPDFVSPPAFAKETKESIKKHIEEKYLIPRLEPDQFSAEKAENQWDFDWFSRVKMPLQPSLPRSVVVPTWELPFRRQKEDTENGAWEPKSVEVDLSEQMYGDQDSGFFPRMVGPPKDFLRGSVNNRPFRPGGLEDSQSSERVLPEGVSSGQWVQELLNGGPAQTVPPSFKQSLDLGDLMPYPQTWSVYEDHSSHGNASDENSSKLSIQFDDLFKKAWEEDTFSELEGDDHTAGSESPKAEAEPDAKASISNEVSKGLETDVTVLDEILSSAKTAIMSEEAVTGSSDKQLRKEGWATKGDSQDIADRFYELVPDMAIEFPFELDNFQKEAICCLEKGESVFVAAHTSAGKTVVAEYAFALATKHCTRAVYTAPIKTISNQKYRDFCGKFDVGLLTGDVSIRPEASCLIMTTEILRSMLYRGADIIRDIEWVIFDEVHYVNDVERGVVWEEVIIMLPRHINFVLLSATVPNTFEFADWIGRTKQKEIRVTGTTKRPVPLEHCLFYSGELYKVCENEVFLSKGIKDAKDSQKKKNSNAVSVAPKQQMGSSAHQDGSKSQKHEAHSRGKQNKHSSVKDVGKSSYSGNSQNNGAFRRSAASNWLLLINKLSKMSLLPVVVFCFSKNYCDRCADALTGTDLTSSSEKSEIRVFCDKAFSRLKGSDRNLPQVLRLQSLLHRGIGVHHAGLLPIVKEVVEMLFCRGVIKVLFSTETFAMGVNAPARTVVFDALRKFDGKEFRQLLPGEYTQMAGRAGRRGLDKTGTVVVMCRDEVPDESDLRRVIVGSATRLESQFRLTYIMILHLLRVEELKVEDMLKRSFAEFHAQKKLPEKQQLLMIKRSLPTKHIECIKGEPAIEDYYDMYMEANEYNNKMSEAVMQSPYAQSFLVQGRVVVMKSGMGIDNLLGIVLKGPSNTNRQYVVLVIKSEIPPPEKNMVSIGKKSSDPSQGYFIAPKSKRGFEEEFYTKPSSRKGPVVIKIELPYHGVAAGVGYEVKGFDNKEFLCICDSKIKIDQVRLLEDGNKAAFSQTVQQLLDLKSDGNKFPPALDPVKDLKLKDAELVETYYKWTNLLQKMSMNKCHGCVKLEEHMKLAREIKKHKTDLKDLEFQMSDEALLQMPAFQGRIDVLKNIGCIDDDLVVQIKGRVACEMNSGEELICTVCLFENQFEELEPEEAVAIMSAFVFQQKNTSAPTLTPKLAKAKQRLYDTAIRLGELQAQYNLQIDPEEYAQENLKFGLVEVVYEWAKGTPFAEICELTDVPEGLIVRTIVRLDETCREFKNAAAIMGNSALHKKMDAASNAIKRDIVFAASLYVTGV
B2: SKI3 (protein, UniProt F4I3Z5 1-1168)
chain: MELEQLKKSVEENPDDSSLQFELGLYLWDNGGDSEKAAEHFVLSAKSDPNNAVAFKYLGHYYSRVTLDLNRAAKCYQRAVLINPNDSDSGEALCDLFDRQGKEILEIAVCRDASEKSPKAFWAFCRLGYIQLHQKKWSEAVQSLQHAIRGYPTMSDLWEALGLAYQRLGMFTAAIKAYGRAIELDETKIFALVESANIFLMLGSYRKGVELFEQALKISPQNISVLYGLASGLLSWSKECINLGAFGWAASLLEDARKAAKASSELASSMSCIWKLHGDIQLTYARCFPWSGGTENSEFTLKTFSDSILSWRSICYSAALSAKASYQRALHLAPWQANVYTDIAITCDLVSSLSDDSDTSSSWKLPEKMVLGALLLECENSEFWVALGCMSDNSALKLHALIRALHLDVSLAVAWAFMGQIFRESDEMKFAKQAFDCARSIDPTLALPWAGSADTYARESTSDEAFESCLRAAQISPLAEFQVGLAWLALLQGNISSPQIFACIEQAVQRSPYYPEPHNLHGLVCEARHNYHTAIASYRLALAAMSIYPESSVKSHAGKVSINLVRSLSKAGRFKESVMECANLKSKGLLDAGGLQIYAFSLWRTGQNDSALSVIRDLAGRISTREKTSIAFPISFICSLLYCISGLDSAITSIQKMPKDFFQSSKISFIVSAIHSLDQSDRLQSIVASTRSYITSQEEIVAMHYLIALSKLLKTGAGDFLGYEKGIAHLSKAIHMYPHSNLIRNLLGYILLAGEGMKDACTASRCCIINVSECANKEGLKSALEVLGGGSVACNVIGNTAPRFSFPTCHCQYLNAPVVVVELQRFLHQEPSNSSVRYLLILNLVQKAREQRFPRQLCRAIERLISVALSDETCSKEGEYKKFQLLLCASEISLQMGNIAESINHARKASSLSLPSSYLFLGHLQLCRAYAANGSTKNMQEEYRACLELKTDSNIGWICLKLIESQYNLEPDANLLEMSLQECSSQKKNSWKEWMAVYSLARGLDSTGKKDFFSAEEFLAQACSLLNSESCLLLCHGAVCMELARQSNDSQFLSLAVKSLSKVQASSLFPLPIVYTLLAQAHGSLGSKEKWEKNLRLEWFCWPPEMRPAEVYFQMHILARQSEDRPETTSGIENYQSPEKWVIRAIHTDPSCRRYWKVLDKLVQHPMS
B3: SKI8 (protein, UniProt Q9SZQ5 1-321)
chain: MKLAGLKSIENAHEDSVWAATWVPATEDRPALLLTGSLDETVKLWRPDELDLVRTNTGHSLGVAALAAHPSGIIAASSSIDSFVRVFDVDTNATIAVLEAPPSEVWGMQFEPKGTILAVAGGSSASVKLWDTASWRLISTLSIPRPDAPKPSDKTSSKKFVLSVAWSPNGKRLACGSMDGTICVFDVDRSKLLHQLEGHNMPVRSLVFSPVDPRVLFSGSDDGHVNMHDAEGKTLLGSMSGHTSWVLSVDASPDGGAIATGSSDRTVRLWDLKMRAAIQTMSNHNDQVWSVAFRPPGGTGVRAGRLASVSDDKSVSLYDYS

What was measured:
Test in all cases: affinity purification with mass spectrometry; GFP-tagged bait captured from cleared lysate of Arabidopsis flower buds (50 mM Tris HCl pH 7.5, 25 or 50 mM NaCl, 1% Triton) on magnetic microbeads coupled to GFP antibodies, five washes; eluate analysed by nanoLC-MS/MS; enrichment against 20 control IPs (adjP < 0.05)
[1] = biological target: T1, RRP41-GFP (Arabidopsis thaliana) (UniProt Q9SP08)
T1 sequence: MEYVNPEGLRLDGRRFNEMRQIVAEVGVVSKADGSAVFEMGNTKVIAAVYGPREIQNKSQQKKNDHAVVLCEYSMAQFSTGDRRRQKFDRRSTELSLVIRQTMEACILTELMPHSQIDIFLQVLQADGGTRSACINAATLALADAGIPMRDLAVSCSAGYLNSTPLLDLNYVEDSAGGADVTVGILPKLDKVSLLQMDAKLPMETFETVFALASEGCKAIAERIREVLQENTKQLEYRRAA

[2] = biological target: T2, CER7-GFP (Arabidopsis thaliana) (UniProt Q9M209)
T2 sequence: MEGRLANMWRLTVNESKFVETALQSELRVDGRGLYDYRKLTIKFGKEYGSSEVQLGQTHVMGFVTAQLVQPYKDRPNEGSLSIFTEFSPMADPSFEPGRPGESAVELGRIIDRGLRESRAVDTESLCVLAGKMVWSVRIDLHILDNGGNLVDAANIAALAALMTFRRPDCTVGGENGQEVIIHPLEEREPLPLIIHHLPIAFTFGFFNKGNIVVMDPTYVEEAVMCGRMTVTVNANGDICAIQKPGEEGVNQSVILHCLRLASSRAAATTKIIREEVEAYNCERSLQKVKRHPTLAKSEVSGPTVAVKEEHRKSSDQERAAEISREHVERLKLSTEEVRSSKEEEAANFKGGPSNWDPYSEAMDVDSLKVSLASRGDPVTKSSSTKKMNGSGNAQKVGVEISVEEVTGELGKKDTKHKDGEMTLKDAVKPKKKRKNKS

[3] = biological target: T3, RST1 … PROTEIN (RIPR) fused to GFP (Arabidopsis thaliana) (UniProt F4K8S5)
T3 sequence: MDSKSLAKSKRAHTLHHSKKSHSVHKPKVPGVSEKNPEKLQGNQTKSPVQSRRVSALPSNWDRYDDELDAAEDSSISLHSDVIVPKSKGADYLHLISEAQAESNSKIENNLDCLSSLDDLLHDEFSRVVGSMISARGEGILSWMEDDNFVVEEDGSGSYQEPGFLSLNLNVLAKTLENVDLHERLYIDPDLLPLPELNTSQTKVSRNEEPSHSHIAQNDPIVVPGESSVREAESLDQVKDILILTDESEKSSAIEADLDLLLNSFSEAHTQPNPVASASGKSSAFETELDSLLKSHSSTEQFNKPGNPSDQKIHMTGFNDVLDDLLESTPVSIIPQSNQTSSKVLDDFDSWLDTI

[4] = biological target: T4, RRP45A-GFP (Arabidopsis thaliana) (UniProt Q9LDM2)
T4 sequence: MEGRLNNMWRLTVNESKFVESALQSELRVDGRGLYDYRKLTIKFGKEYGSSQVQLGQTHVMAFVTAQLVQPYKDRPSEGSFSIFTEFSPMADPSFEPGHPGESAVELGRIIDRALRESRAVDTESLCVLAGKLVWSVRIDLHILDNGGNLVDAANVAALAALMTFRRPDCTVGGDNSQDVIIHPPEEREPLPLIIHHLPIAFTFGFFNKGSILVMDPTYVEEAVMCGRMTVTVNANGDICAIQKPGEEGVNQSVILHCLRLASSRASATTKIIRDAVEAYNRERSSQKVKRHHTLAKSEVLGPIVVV

[5] = biological target: RESURRECTION1 (RST1) fused to GFP (Arabidopsis thaliana) (UniProt Q7XZF5)
[6] = biological target: T3, RST1 … PROTEIN (RIPR) fused to GFP (Arabidopsis thaliana); remark: listed apart in the source

Row | Molecule | binding [1] | binding [2] | binding [3] | binding [4] | binding [5] | binding [6]
1 | RESURRECTION1 (RST1) (from UniProt Q7XZF5 1-1841) | binds | binds | binds | no binding |  | 
2 | SKI7 | binds | binds | binds | no binding |  | 
3 | B1 |  |  |  |  | no binding | binds
4 | B2 |  |  |  |  | no binding | binds
5 | B3 |  |  |  |  | no binding | binds

Read-outs that look alike come from different tables or passages of the source. Results are given in words; binding and its absence hold for the method and conditions named. Binding seen in cells or lysates may run through a third protein. A yes stands for co-enrichment or nearness to the bait. Other partners may have been found. For some assays here: No binding means not detected with the bait. For some assays here: Where a sequence is shown, tags or fusion partners need not be part of it.
